Source: publication PMC3873232

Protein sequences, listed by entry. Tags and fused reporters are not part of them. Lines headed by an entry give the natural chain unless they say otherwise; changes in a name come on top.
UniProt Q9P6R2: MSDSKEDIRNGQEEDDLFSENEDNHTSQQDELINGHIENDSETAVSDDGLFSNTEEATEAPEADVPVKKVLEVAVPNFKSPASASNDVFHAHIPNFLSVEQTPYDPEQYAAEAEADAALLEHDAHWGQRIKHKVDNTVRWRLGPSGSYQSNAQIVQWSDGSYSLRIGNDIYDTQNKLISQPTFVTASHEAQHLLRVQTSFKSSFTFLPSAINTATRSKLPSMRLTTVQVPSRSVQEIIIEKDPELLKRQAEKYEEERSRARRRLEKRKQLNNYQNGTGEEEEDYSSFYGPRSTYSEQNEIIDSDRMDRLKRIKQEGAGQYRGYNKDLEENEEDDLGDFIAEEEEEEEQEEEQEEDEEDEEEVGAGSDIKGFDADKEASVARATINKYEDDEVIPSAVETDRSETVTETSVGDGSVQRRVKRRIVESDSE

T1: Tpr1-TAP (S. pombe) (UniProt O42668)
T1 sequence: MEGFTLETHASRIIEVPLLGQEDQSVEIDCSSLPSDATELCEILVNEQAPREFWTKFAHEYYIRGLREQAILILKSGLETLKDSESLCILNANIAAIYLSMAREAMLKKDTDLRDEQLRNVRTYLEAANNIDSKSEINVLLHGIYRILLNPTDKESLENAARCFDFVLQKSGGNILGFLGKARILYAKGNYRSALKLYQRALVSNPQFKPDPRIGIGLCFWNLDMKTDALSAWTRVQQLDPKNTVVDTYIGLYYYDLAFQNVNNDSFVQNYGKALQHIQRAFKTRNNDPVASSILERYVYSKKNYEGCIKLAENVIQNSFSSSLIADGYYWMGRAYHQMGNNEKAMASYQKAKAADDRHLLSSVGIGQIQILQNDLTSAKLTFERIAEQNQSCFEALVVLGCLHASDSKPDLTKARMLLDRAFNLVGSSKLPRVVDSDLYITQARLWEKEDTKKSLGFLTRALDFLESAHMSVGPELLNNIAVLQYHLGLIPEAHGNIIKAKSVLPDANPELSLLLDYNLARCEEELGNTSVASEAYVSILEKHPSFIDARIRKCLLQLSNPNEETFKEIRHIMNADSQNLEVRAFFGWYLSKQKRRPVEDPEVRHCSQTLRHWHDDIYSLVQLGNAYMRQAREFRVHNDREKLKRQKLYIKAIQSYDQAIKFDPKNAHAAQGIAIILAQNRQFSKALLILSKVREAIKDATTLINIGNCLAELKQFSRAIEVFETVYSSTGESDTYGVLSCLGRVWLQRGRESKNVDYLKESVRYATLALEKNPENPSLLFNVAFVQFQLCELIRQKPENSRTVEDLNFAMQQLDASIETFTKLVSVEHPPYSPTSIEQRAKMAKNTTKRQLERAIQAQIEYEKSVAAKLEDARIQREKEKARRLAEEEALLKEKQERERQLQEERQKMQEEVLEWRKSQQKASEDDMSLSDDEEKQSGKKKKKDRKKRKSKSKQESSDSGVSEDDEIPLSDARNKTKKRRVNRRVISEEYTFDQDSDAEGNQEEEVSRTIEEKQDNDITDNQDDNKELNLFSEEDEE


Tests used:
[1] = target: T1, Tpr1-TAP (S. pombe); assay: affinity purification with mass spectrometry; TAP from S. pombe whole cell extracts, modified (no glycerol or detergent in final wash and elution, EDTA in the elution buffer); eluate analysed in solution by mass spectrometry; untagged strain as control
[2] = target: T1, Tpr1-TAP (S. pombe); assay: affinity purification with mass spectrometry; tandem affinity purification (TAP) from S. pombe whole cell extracts; SDS-PAGE with Coomassie or silver staining; bands absent from the untagged control excised and identified by tandem mass spectrometry
[3] = target: Prf1-TAP (S. pombe); assay: affinity purification with mass spectrometry; TAP from S. pombe whole cell extracts, modified (no glycerol or detergent in final wash and elution, EDTA in the elution buffer); eluate analysed in solution by mass spectrometry; untagged strain as control
[4] = target: Prf1-TAP (S. pombe); assay: affinity purification with mass spectrometry; tandem affinity purification (TAP) from S. pombe whole cell extracts; SDS-PAGE with Coomassie or silver staining; bands absent from the untagged control excised and identified by tandem mass spectrometry
[5] = target: Paf1-TAP (S. pombe); assay: as above

Molecule | binding [1] | binding [2] | binding [3] | binding [4] | binding [5]
Prf1 (S. pombe) | no binding | no binding | – | – | –
Paf1 (S. pombe) | binds | binds | – | – | –

Now from value to molecule:

binding [1] | binding [2] | binding [3] | binding [4] | binding [5] | Molecule
binds | binds | – | – | – | Leo1 (from UniProt Q9P6R2)
– | – | no binding | no binding | binds | Tpr1 (protein, UniProt O42668 1-1039) MEGFTLETHASRIIEVPLLGQEDQSVEIDCSSLPSDATELCEILVNEQAPREFWTKFAHEYYIRGLREQAILILKSGLETLKDSESLCILNANIAAIYLSMAREAMLKKDTDLRDEQLRNVRTYLEAANNIDSKSEINVLLHGIYRILLNPTDKESLENAARCFDFVLQKSGGNILGFLGKARILYAKGNYRSALKLYQRALVSNPQFKPDPRIGIGLCFWNLDMKTDALSAWTRVQQLDPKNTVVDTYIGLYYYDLAFQNVNNDSFVQNYGKALQHIQRAFKTRNNDPVASSILERYVYSKKNYEGCIKLAENVIQNSFSSSLIADGYYWMGRAYHQMGNNEKAMASYQKAKAADDRHLLSSVGIGQIQILQNDLTSAKLTFERIAEQNQSCFEALVVLGCLHASDSKPDLTKARMLLDRAFNLVGSSKLPRVVDSDLYITQARLWEKEDTKKSLGFLTRALDFLESAHMSVGPELLNNIAVLQYHLGLIPEAHGNIIKAKSVLPDANPELSLLLDYNLARCEEELGNTSVASEAYVSILEKHPSFIDARIRKCLLQLSNPNEETFKEIRHIMNADSQNLEVRAFFGWYLSKQKRRPVEDPEVRHCSQTLRHWHDDIYSLVQLGNAYMRQAREFRVHNDREKLKRQKLYIKAIQSYDQAIKFDPKNAHAAQGIAIILAQNRQFSKALLILSKVREAIKDATTLINIGNCLAELKQFSRAIEVFETVYSSTGESDTYGVLSCLGRVWLQRGRESKNVDYLKESVRYATLALEKNPENPSLLFNVAFVQFQLCELIRQKPENSRTVEDLNFAMQQLDASIETFTKLVSVEHPPYSPTSIEQRAKMAKNTTKRQLERAIQAQIEYEKSVAAKLEDARIQREKEKARRLAEEEALLKEKQERERQLQEERQKMQEEVLEWRKSQQKASEDDMSLSDDEEKQSGKKKKKDRKKRKSKSKQESSDSGVSEDDEIPLSDARNKTKKRRVNRRVISEEYTFDQDSDAEGNQEEEVSRTIEEKQDNDITDNQDDNKELNLFSEEDEE
binds | binds | no binding | no binding | – | Cdc73 (protein, UniProt Q9UUE7 1-371) MDSLLLLKKSIAEKKDVKLLASSEATSKVEKIEDAQYILFDENTSPILIDEPTKFIKLENDSHFSLRSVYFAWLLRDTSIAEYIQQCSELGIQNLTFLERTDLISWLEGSSDSEHIIGLEKPKPEGSTDAATSMDVDLHKKSEEVNWLFENTRTVSNHNSVLHGIKPIDFISLRKDVLDYIHANKATASAHADEQERPAKKRNRDPIILLSPSASSLLTMHNIKKFLEEGIFVPPAEAAHAAGGGRGPELIALSHKSSNSKFGTMRFIIVEGTEKFKPDYWDRVVCVFTTGQAWQFRDYKWSEPHQLFHHVKGFLVQYVGDPPHPATHDWNVEGIFVERLRRHTDREVVSQLWDKLERWMENRWPLWNGRR

No constants are given. Whether binding was seen depends on the method and setting. In cells and extracts the contact can be indirect. A yes stands for co-enrichment or nearness to the bait. Other partners may have been found. For some of these results: No binding means not detected with the bait.
